Experimental findings from the supplement of paper PMC9135407 are described below.

“And” between values parts separate entries of the source, which are not always exact repeats. Equal entries are not always repeated. Structures can show the parent of a compound that is named as a salt. ± gives the standard deviation of the averaged measurements. The list shows a part of the results. Plates or batches differ in their baseline, so values are only roughly comparable.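 Culture-activated primary human stellate myofibroblasts, where regained lipid droplets signal inactivation. Value: share of Hoechst-counted cells above a per-plate Bodipy cutoff, in duplicate wells, with DMSO negative and nortriptyline positive controls on each plate. Hits: a control-normalized score above the plate's top-tenth-percentile nortriptyline wells, or one of a plate's three best wells. Final well concentrations are not given.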

In this assay the test system is primary human hepatic stellate cells (donor 1). Nature of the assay: percent Bodipy-positive cells; higher = more lipid droplet accumulation. The conditions noted are these: 48 h.
Where [1] appears, read: library stock concentration: 10 mM.
Setting [2] is: library stock concentration: 3.33 mM.
Setting [3] is: library stock concentration: 80 uM.
The mark [4] stands for this setting: library stock concentration: 400 uM.
The mark [5] stands for this setting: library stock concentration: 2 mM.
[6] abbreviates: library stock concentration: 1 mM.

On to `CC(C)[C@H]1c2ccc(F)cc2CC[C@@]1(CCN(C)CCCc1nc2ccccc2[nH]1)OC(=O)C1CC1`, for which the “percent Bodipy-positive cells” value under setting [1] turned out to be 93.9 ± 8.6%.
Still for that read-out and setting: the result for `CC(C)[C@H]1c2ccc(F)cc2CC[C@@]1(CCN(C)CCCc1nc2ccccc2[nH]1)OC(=O)C1CC1` [NNC 55-0396 dihydrochloride] reads 100%.
In the case of `CCOC(=O)n1ccn(C)c1=S` [Carbimazole], the “percent Bodipy-positive cells” value amounted to 22.5 ± 4.8%. Also, the “percent Bodipy-positive cells” value under setting [2] was 10.9 ± 0.41%.
On to `CC1(O)CCC(C(C)(C)O)CC1` (stereo not given), for which the “percent Bodipy-positive cells” value under setting [1] came out at 27.7 ± 2.5%.
In the case of `COc1cc(N2CCC(N)CC2)ccc1Nc1ncc(Cl)c(-c2c[nH]c3ccccc23)n1`, the “percent Bodipy-positive cells” value is, setting by setting: under setting [2], 79.1 ± 2.4%; under setting [1], 98.9 ± 1.5%.
Regarding `CN1CCN2c3ccccc3Cc3ccccc3C2C1.Cl` (stereo not given) [Mianserin hydrochloride], the “percent Bodipy-positive cells” value under setting [1] came out at 88.7 ± 2.9%.
Same read-out and setting: the result for `CCC(=O)Oc1ccc2c(c1)CC[C@@H]1[C@@H]2CC[C@]2(C)[C@@H](OC(=O)CC)CC[C@@H]12` reads 32.2 ± 14%.
For `COc1cc2ncnc(N3CCN(C(=O)Nc4ccc(Oc5ccccc5)cc4)CC3)c2cc1OC`, the “percent Bodipy-positive cells” value is, setting by setting: under setting [3], 10.2 ± 3.8%; under setting [4], 7.39 ± 2.2%; under setting [5], 9.75 ± 2.6%; under setting [1], 10.5 ± 2.4%.
Turning to `COc1cc2ncnc(N3CCN(C(=O)Nc4ccc(Oc5ccccc5)cc4)CC3)c2cc1OC` [PDGF Receptor Tyrosine Kinase Inhibitor III], under setting [2], the “percent Bodipy-positive cells” value is 16.7 ± 1.6%.
For the molecule `CC(C)OC(=O)CCC/C=C\C[C@@H]1[C@@H](/C=C/[C@@H](O)COc2cccc(C(F)(F)F)c2)[C@H](O)C[C@@H]1O`, the “percent Bodipy-positive cells” value under setting [1] is 24.2 ± 8%.
Turning to `O=C1CN(/N=C/c2ccc(-c3ccc([N+](=O)[O-])cc3)o2)C(=O)N1` [Dantrolene sodium salt], the “percent Bodipy-positive cells” value turned out to be 44.8 ± 5.1%.
In the case of `O=C1CN(/N=C/c2ccc(-c3ccc([N+](=O)[O-])cc3)o2)C(=O)N1` [Dantrolene sodium], the “percent Bodipy-positive cells” value is, setting by setting: (library stock concentration: 5.9 mM) 27.6 ± 15%; under setting [1], 51.9 ± 22%.
Take `O=C1CN(/N=C/c2ccc(-c3ccc([N+](=O)[O-])cc3)o2)C(=O)N1` [Dantrolene?Sodium]: under setting [1], the “percent Bodipy-positive cells” value is 34.7 ± 6.5%.
On the same count and under the same terms, the result for `O=C1CN(/N=C/c2ccc(-c3ccc([N+](=O)[O-])cc3)o2)C(=O)N1` [Dantrolene, sodium salt] reads 4.12 ± 2.7%.
Consider `Nc1[nH]nc2nnc(-c3c(-c4ccccc4)nn4ccccc34)cc12`, for which the “percent Bodipy-positive cells” value runs as follows: under setting [3], 8.11 ± 0.56%; under setting [4], 7.356 ± 0.054%; under setting [5], 10.5 ± 4%; under setting [2], 8.77 ± 2.8%; under setting [1], 11.5% and 4.78%.
Turning to `CC(C)(F)C[C@H](N[C@@H](c1ccc(-c2ccc(S(C)(=O)=O)cc2)cc1)C(F)(F)F)C(=O)NC1(C#N)CC1` [Odanacatib (MK-0822)], the “percent Bodipy-positive cells” value is, setting by setting: under setting [2], 14 ± 7%; under setting [1], 22.6 ± 3.4%.
As to `CC(C)OC(=O)CCC/C=C\C[C@@H]1[C@@H](CC[C@@H](O)CCc2ccccc2)[C@H](O)C[C@@H]1O` [Latanoprost (free acid)], the “percent Bodipy-positive cells” value under setting [6] stood at 15.8 ± 2.1%.
Regarding `Cl.O=C(CCCN1CCC(O)(c2cccc(C(F)(F)F)c2)CC1)c1ccc(F)cc1` [Trifluperidol hydrochloride], under setting [1], the “percent Bodipy-positive cells” value was 88.2 ± 2.8%.
For the molecule `CN(C)CCCN1c2ccccc2CCc2ccc(Cl)cc21.Cl` [Clomipramine hydrochloride], the “percent Bodipy-positive cells” value under setting [1] was determined as 94.18 ± 0.51%.
On to `CCCCCCCCCCCCCCC[C@@H](O)[C@@H](N)CO` [Dihydrosphingosine], for which, under setting [6], the “percent Bodipy-positive cells” value worked out at 6.08 ± 2.5%.
As for `C[n+]1cccc(C(=O)[O-])c1` [Trigonelline], the “percent Bodipy-positive cells” value amounted to 31.9 ± 9.2%.
As to `COc1cc(C)c(/C=C/C(C)=C/C=C/C(C)=C/C(=O)O)c(C)c1C` [Acitretin], the “percent Bodipy-positive cells” value reads like this: under setting [2], 6.24 ± 1.1%; under setting [1], 8.31 ± 3.8%.
Turning to `CNCCC(Oc1ccc(C(F)(F)F)cc1)c1ccccc1.Cl` (stereo not given) [Fluoxetine hydrochloride], the “percent Bodipy-positive cells” value is 94.2 ± 2.6%.
With `O=c1[nH]c(=O)n([C@H]2C[C@H](O)[C@@H](CO)O2)cc1F` [Floxuridine], the “percent Bodipy-positive cells” value is 11.7 ± 1.8% under setting [2]; 8.79% and 24.1% (library stock concentration: 8.1 mM); 22.8% and 47.2% and 42.4% under setting [1].
On to `Nc1ccc(C(=O)Oc2ccccc2)c(O)c1` [Phenyl aminosalicylate], for which the “percent Bodipy-positive cells” value (library stock concentration: 8.7 mM) turned out to be 9.07 ± 2.4%.
Turning to `CC(C)CC(NC(=O)OCC1c2ccccc2-c2ccccc21)C(=O)O` (stereo not given), the “percent Bodipy-positive cells” value under setting [1] was 6.38 ± 0.5%.
Regarding `CNNCc1ccc(C(=O)NC(C)C)cc1` [Procarbazine HCl], under “library stock concentration: 9 mM”, the “percent Bodipy-positive cells” value stood at 11.4 ± 2.8%.
Regarding `CNNCc1ccc(C(=O)NC(C)C)cc1` [Procarbazine hydrochloride], the “percent Bodipy-positive cells” value came out at 8.41 ± 0.8%.
Turning to `CNNCc1ccc(C(=O)NC(C)C)cc1`, under setting [1], the “percent Bodipy-positive cells” value came to 5.93 ± 1.4%.
For the molecule `NS(=O)(=O)c1cc2c(cc1Cl)NCNS2(=O)=O` [Hydrochlorothiazide], the “percent Bodipy-positive cells” value came out at 25.3 ± 1.9%. Moreover, the “percent Bodipy-positive cells” value under setting [2] came to 6.1 ± 1.2%. For the same molecule, for the setting “library stock concentration: 6.7 mM”, the “percent Bodipy-positive cells” value is 4.42 ± 1.5%.
Turning to `NS(=O)(=O)c1cc2c(cc1Cl)NCNS2(=O)=O`, the “percent Bodipy-positive cells” value under setting [1] amounted to 35.3 ± 1.6%.
`O=C(NC1CCOCC1)c1ccc(-c2cc(-c3c[nH]nc3-c3ccccn3)ccn2)cc1`: the “percent Bodipy-positive cells” value is, setting by setting: under setting [2], 7.61 ± 4.8%; under setting [1], 8.21 ± 0.54%.
For the molecule `O=C1C(=O)N(Cc2ccc(Cl)c(Cl)c2)c2ccccc21` [Apoptosis Activator 2], the “percent Bodipy-positive cells” value is 9.73 ± 8.4% under setting [2]; 25.3% and 13% under setting [1].
For `COc1cc(/C=C/C(=O)O)ccc1O` [Ferulic Acid], the “percent Bodipy-positive cells” value is 8.19 ± 3.3% under setting [2] and 6.89 ± 2.4% under setting [1].
For `COc1cc(/C=C/C(=O)O)ccc1O` [Ferulic acid], under setting [1], the “percent Bodipy-positive cells” value came out at 31.2 ± 5.2%.
Take `C[N+]1(C)CCC(=C(c2ccccc2)c2ccccc2)CC1` [Diphemanil methylsulfate]: the “percent Bodipy-positive cells” value amounted to 35 ± 7.2%.
As to `C[N+]1(C)CCC(=C(c2ccccc2)c2ccccc2)CC1` [Diphemanil Methylsulfate], the “percent Bodipy-positive cells” value by setting is: under setting [2], 8.5 ± 1.1%; under setting [1], 40.4 ± 7.6%.
On to `CN(C)CCc1c[nH]c2ccc(C[C@H]3COC(=O)N3)cc12` [Zolmitriptan], for which the “percent Bodipy-positive cells” value reads like this: under setting [2], 10.1 ± 1%; (library stock concentration: 7 mM) 10.3 ± 0.49%.
For `CN(C)CCc1c[nH]c2ccc(C[C@H]3COC(=O)N3)cc12` [zolmitriptan], the “percent Bodipy-positive cells” value (library stock concentration: 6.6 mM) turned out to be 10.6 ± 0.36%.
For `CN(C)CCC=C1c2ccccc2C=Cc2ccccc21` [Cyclobenzaprine hydrochloride], the “percent Bodipy-positive cells” value was found to be 67.4 ± 1.2% (library stock concentration: 6.4 mM) and 77.2 ± 4% under setting [1].
Regarding `CN(C)CCC=C1c2ccccc2C=Cc2ccccc21` [Cyclobenzaprine HCl], the “percent Bodipy-positive cells” value under setting [1] was 71.8 ± 15%.
Take `O=C1c2cccc(O)c2C(=O)c2c(O)cc(CO)cc21` [Aloe-emodin]: the “percent Bodipy-positive cells” value under setting [2] came to 6.16 ± 0.53% and the “percent Bodipy-positive cells” value under setting [1] came out at 11.3 ± 4.1%.
In the case of `CCC(=O)O[C@H]1[C@H](O[C@@H]2[C@@H](C)[C@H](O[C@H]3C[C@@](C)(OC)[C@@H](O)[C@H](C)O3)[C@@H](C)C(=O)O[C@H](CC)[C@@](C)(O)[C@H](O)[C@@H](C)C(=O)[C@H](C)C[C@@]2(C)O)O[C@H](C)C[C@@H]1N(C)C` [Erythromycin estolate], the “percent Bodipy-positive cells” value is, setting by setting: (library stock concentration: 1.9 mM) 22.2 ± 2.6%; under setting [1], 35.9 ± 2.4%.
Consider `O=P(O)(O)OC1[C@H](OP(=O)(O)O)[C@H](O)C(O)[C@H](O)[C@H]1OP(=O)(O)O` (stereo partly drawn) [D-myo-Inositol-1,2,6-triphosphate (sodium salt)], for which, under setting [6], the “percent Bodipy-positive cells” value stood at 7.88 ± 0.85%.
As to `O=S(=O)(c1ccccc1)c1cnc2c(N3CCNCC3)cccc2c1`, the “percent Bodipy-positive cells” value under setting [1] stood at 73.5 ± 2.6%.
Still for that read-out and setting: in the case of `COc1cc(C(C)=O)ccc1OCCCN1CCC(c2noc3cc(F)ccc23)CC1` it was 90 ± 1.1%.
